The nature of this series: TMTcalibrator quantification of regulated proteins in AD CSF versus control. Also on record: species or system human. Conditions: CSF of AD patient versus control; non-modified peptides of each protein summed for three control and three AD cases.

B1: Q13151 (protein, UniProt Q13151 1-305, looked up)
chain: MENSQLCKLFIGGLNVQTSESGLRGHFEAFGTLTDCVVVVNPQTKRSRCFGFVTYSNVEEADAAMAASPHAVDGNTVELKRAVSREDSARPGAHAKVKKLFVGGLKGDVAEGDLIEHFSQFGTVEKAEIIADKQSGKKRGFGFVYFQNHDAADKAAVVKFHPIQGHRVEVKKAVPKEDIYSGGGGGGSRSSRGGRGGRGRGGGRDQNGLSKGGGGGYNSYGGYGGGGGGGYNAYGGGGGGSSYGGSDYGNGFGGFGSYSQHQSSYGPMKSGGGGGGGGSSWGGRSNSGPYRGGYGGGGGYGGSSF
modifications: full-length
Take B1: the “Log2 AD/Control” value was determined as 0.90.

B2: A6NGN9 (protein, UniProt A6NGN9 1-336, looked up)
chain: MPPPAPGARLRLLAAAALAGLAVISRGLLSQSLEFNSPADNYTVCEGDNATLSCFIDEHVTRVAWLNRSNILYAGNDRWTSDPRVRLLINTPEEFSILITEVGLGDEGLYTCSFQTRHQPYTTQVYLIVHVPARIVNISSPVTVNEGGNVNLLCLAVGRPEPTVTWRQLRDGFTSEGEILEISDIQRGQAGEYECVTHNGVNSAPDSRRVLVTVNYPPTITDVTSARTALGRAALLRCEAMAVPPADFQWYKDDRLLSSGTAEGLKVQTERTRSMLLFANVSARHYGNYTCRAANRLGASSASMRLLRPGSLENSAPRPPGLLALLSALGWLWWRM
modifications: full-length
Regarding B2, the “Log2 AD/Control” value is on record as 1.24.

B3: Q9UMF0 (protein, UniProt Q9UMF0 1-924, looked up)
chain: MPGPSPGLRRALLGLWAALGLGLFGLSAVSQEPFWADLQPRVAFVERGGSLWLNCSTNCPRPERGGLETSLRRNGTQRGLRWLARQLVDIREPETQPVCFFRCARRTLQARGLIRTFQRPDRVELMPLPPWQPVGENFTLSCRVPGAGPRASLTLTLLRGAQELIRRSFAGEPPRARGAVLTATVLARREDHGANFSCRAELDLRPHGLGLFENSSAPRELRTFSLSPDAPRLAAPRLLEVGSERPVSCTLDGLFPASEARVYLALGDQNLSPDVTLEGDAFVATATATASAEQEGARQLVCNVTLGGENRETRENVTIYSFPAPLLTLSEPSVSEGQMVTVTCAAGAQALVTLEGVPAAVPGQPAQLQLNATENDDRRSFFCDATLDVDGETLIKNRSAELRVLYAPRLDDSDCPRSWTWPEGPEQTLRCEARGNPEPSVHCARSDGGAVLALGLLGPVTRALSGTYRCKAANDQGEAVKDVTLTVEYAPALDSVGCPERITWLEGTEASLSCVAHGVPPPDVICVRSGELGAVIEGLLRVAREHAGTYRCEATNPRGSAAKNVAVTVEYGPRFEEPSCPSNWTWVEGSGRLFSCEVDGKPQPSVKCVGSGGATEGVLLPLAPPDPSPRAPRIPRVLAPGIYVCNATNRHGSVAKTVVVSAESPPEMDESTCPSHQTWLEGAEASALACAARGRPSPGVRCSREGIPWPEQQRVSREDAGTYHCVATNAHGTDSRTVTVGVEYRPVVAELAASPPGGVRPGGNFTLTCRAEAWPPAQISWRAPPGALNIGLSSNNSTLSVAGAMGSHGGEYECAATNAHGRHARRITVRVAGPWLWVAVGGAAGGAALLAAGAGLAFYVQSTACKKGEYNVQEAESSGEAVCLNGAGGGAGGAAGAEGGPEAAGGAAESPAEGEVFAIQLTSA
modifications: full-length
With B3, the “Log2 AD/Control” value is given as 0.80.

B4: O43790 (protein, UniProt O43790 1-486, looked up)
chain: MTCGSYCGGRAFSCISACGPRPGRCCITAAPYRGISCYRGLTGGFGSHSVCGGFRAGSCGRSFGYRSGGVCGPSPPCITTVSVNESLLTPLNLEIDPNAQCVKQEEKEQIKSLNSRFAAFIDKVRFLEQQNKLLETKLQFYQNRECCQSNLEPLFEGYIETLRREAECVEADSGRLASELNHVQEVLEGYKKKYEEEVSLRATAENEFVALKKDVDCAYLRKSDLEANVEALIQEIDFLRRLYEEEIRVLQSHISDTSVVVKLDNSRDLNMDCIIAEIKAQYDDIVTRSRAEAESWYRSKCEEMKATVIRHGETLRRTKEEINELNRMIQRLTAEVENAKCQNSKLEAAVAQSEQQGEAALSDARCKLAELEGALQKAKQDMACLIREYQEVMNSKLGLDIEIATYRRLLEGEEQRLCEGVGSVNVCVSSSRGGVVCGDLCASTTAPVVSTRVSSVPSNSNVVVGTTNACAPSARVGVCGGSCKRC
modifications: full-length
B4: the “Log2 AD/Control” value is 0.66.

B5: P22304 (protein, UniProt P22304 1-550, looked up)
chain: MPPPRTGRGLLWLGLVLSSVCVALGSETQANSTTDALNVLLIIVDDLRPSLGCYGDKLVRSPNIDQLASHSLLFQNAFAQQAVCAPSRVSFLTGRRPDTTRLYDFNSYWRVHAGNFSTIPQYFKENGYVTMSVGKVFHPGISSNHTDDSPYSWSFPPYHPSSEKYENTKTCRGPDGELHANLLCPVDVLDVPEGTLPDKQSTEQAIQLLEKMKTSASPFFLAVGYHKPHIPFRYPKEFQKLYPLENITLAPDPEVPDGLPPVAYNPWMDIRQREDVQALNISVPYGPIPVDFQRKIRQSYFASVSYLDTQVGRLLSALDDLQLANSTIIAFTSDHGWALGEHGEWAKYSNFDVATHVPLIFYVPGRTASLPEAGEKLFPYLDPFDSASQLMEPGRQSMDLVELVSLFPTLAGLAGLQVPPRCPVPSFHVELCREGKNLLKHFRFRDLEEDPYLPGNPRELIAYSQYPRPSDIPQWNSDKPSLKDIKIMGYSIRTIDYRYTVWVGFNPDEFLANFSDIHAGELYFVDSDPLQDHNMYNDSQGGDLFQLLMP
modifications: full-length
For the molecule B5, the “Log2 AD/Control” value worked out at 1.30.

B6: Q9Y4L1 (protein, UniProt Q9Y4L1 1-999, looked up)
chain: MADKVRRQRPRRRVCWALVAVLLADLLALSDTLAVMSVDLGSESMKVAIVKPGVPMEIVLNKESRRKTPVIVTLKENERFFGDSAASMAIKNPKATLRYFQHLLGKQADNPHVALYQARFPEHELTFDPQRQTVHFQISSQLQFSPEEVLGMVLNYSRSLAEDFAEQPIKDAVITVPVFFNQAERRAVLQAARMAGLKVLQLINDNTATALSYGVFRRKDINTTAQNIMFYDMGSGSTVCTIVTYQMVKTKEAGMQPQLQIRGVGFDRTLGGLEMELRLRERLAGLFNEQRKGQRAKDVRENPRAMAKLLREANRLKTVLSANADHMAQIEGLMDDVDFKAKVTRVEFEELCADLFERVPGPVQQALQSAEMSLDEIEQVILVGGATRVPRVQEVLLKAVGKEELGKNINADEAAAMGAVYQAAALSKAFKVKPFVVRDAVVYPILVEFTREVEEEPGIHSLKHNKRVLFSRMGPYPQRKVITFNRYSHDFNFHINYGDLGFLGPEDLRVFGSQNLTTVKLKGVGDSFKKYPDYESKGIKAHFNLDESGVLSLDRVESVFETLVEDSAEEESTLTKLGNTISSLFGGGTTPDAKENGTDTVQEEEESPAEGSKDEPGEQVELKEEAEAPVEDGSQPPPPEPKGDATPEGEKATEKENGDKSEAQKPSEKAEAGPEGVAPAPEGEKKQKPARKRRMVEEIGVELVVLDLPDLPEDKLAQSVQKLQDLTLRDLEKQEREKAANSLEAFIFETQDKLYQPEYQEVSTEEQREEISGKLSAASTWLEDEGVGATTVMLKEKLAELRKLCQGLFFRVEERKKWPERLSALDNLLNHSSMFLKGARLIPEMDQIFTEVEMTTLEKVINETWAWKNATLAEQAKLPATEKPVLLSKDIEAKMMALDREVQYLLNKAKFTKPRPRPKDKNGTRAEPPLNASASDQGEKVIPPAGQTEDAEPISEPEKVETGSEPGDTEPLELGGPGAEPEQKEQSTGQKRPLKNDEL
modifications: full-length
Turning to B6, the “Log2 AD/Control” value came out at 0.86.

B7: P13645 (protein, UniProt P13645 1-584, looked up)
chain: MSVRYSSSKHYSSSRSGGGGGGGGCGGGGGVSSLRISSSKGSLGGGFSSGGFSGGSFSRGSSGGGCFGGSSGGYGGLGGFGGGSFRGSYGSSSFGGSYGGIFGGGSFGGGSFGGGSFGGGGFGGGGFGGGFGGGFGGDGGLLSGNEKVTMQNLNDRLASYLDKVRALEESNYELEGKIKEWYEKHGNSHQGEPRDYSKYYKTIDDLKNQILNLTTDNANILLQIDNARLAADDFRLKYENEVALRQSVEADINGLRRVLDELTLTKADLEMQIESLTEELAYLKKNHEEEMKDLRNVSTGDVNVEMNAAPGVDLTQLLNNMRSQYEQLAEQNRKDAEAWFNEKSKELTTEIDNNIEQISSYKSEITELRRNVQALEIELQSQLALKQSLEASLAETEGRYCVQLSQIQAQISALEEQLQQIRAETECQNTEYQQLLDIKIRLENEIQTYRSLLEGEGSSGGGGRGGGSFGGGYGGGSSGGGSSGGGHGGGHGGSSGGGYGGGSSGGGSSGGGYGGGSSSGGHGGSSSGGYGGGSSGGGGGGYGGGSSGGGSSSGGGYGGGSSSGGHKSSSSGSVGESSSKGPRY
modifications: full-length
As to B7, the “Log2 AD/Control” value is 0.66.
